Source: PubChem BioAssay AID493014 (National Center for Advancing Translational Sciences (NCATS), 2011)
Among all 340,000 compounds or so, about 170 (0.05%) were called active. The inconclusive results got no clear call from the source; some entries with a clear call stand among them for comparison. Calls come from the whole dose curve; as a rule, active = well fitted inhibition curve with a large enough effect in the signal ratio, with a control signal flat (not every such curve was filed as active); inconclusive = small, poorly fitted or top-dose-only effect, or effect the other way, or a change in a side signal; inactive = flat fitted curve, though single readings scatter; the % refers to the signal ratio. A potency beside an inconclusive call is a rough fit, not a confirmed value.
Potency is the fitted concentration of half-maximal effect.

Test: qHTS Assay to Find Inhibitors of Chronic Active B-Cell Receptor Signaling;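 for activity change, negative = inhibition: plate controls were basal doxycycline-induced cells for no effect and cells given 10 µM MG132 for full effect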
Conditions: ABC-DLBCL IkBa-CBG/CBR reporter, luminescence ratio (green luciferase fused to IkBa over red control in TMD8 lymphoma cells), 4 h; activity change, negative = inhibition: at 46.1 µM (top of the series) unless noted
How it was run: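 Compounds up to 46 uM were incubated four hours with TMD8 cells whose green CBG68 luciferase is fused to IkappaBalpha; red CBR luminescence normalised the signal, and concentration-effect curves were fitted to fusion, red and ratio data.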
For `Cc1cc(C(=O)COC(=O)Cc2n[nH]c(=O)c3ccccc23)c(C)n1-c1ccc2c(c1)OCCO2`, the activity change, negative = inhibition was inconclusive: -13.3%. With `CCOC(=O)CCC(=O)Nc1cc(S(=O)(=O)N2CCOCC2)ccc1N1CCCCC1` the activity change, negative = inhibition was inconclusive: 3.69%. For `COC(=O)CCCC1=CC2=C(c3ccccc3)C(=O)C(C)(OC(=O)C3CCCC3)C(=O)C2=CN1Cc1ccc2c(c1)OCO2` (stereo not drawn), the activity change, negative = inhibition was “inactive”. With `CCC(C)NC(=O)c1cc(Cl)ccc1OC` (stereo not drawn) the activity change, negative = inhibition was inconclusive: 11.1%. For `CCOc1ccc(Br)cc1S(=O)(=O)Nc1ccc(C(=O)OCC(=O)N(C)c2ccccc2)cc1`, the activity change, negative = inhibition was inconclusive: -0.341%. In the case of `CCCN1C(=O)/C(=C/c2ccccc2OCc2ccc(C(=O)O)cc2)NC1=S`, the Potency is reported as inconclusive: 17.8 µM [falling, partial curve]. With `Cc1cc(C(=O)C(=O)N(C)C)c(C)n1-c1ccc(Cl)c(Cl)c1` the Potency was inconclusive: 14.1 µM [falling, partial curve, poor fit]. In the case of `CCc1nn2c(N)c(/C=C3\C=Nc4ccccc43)c(=O)nc2s1`, the activity change, negative = inhibition is reported as inconclusive: -0.837%. In the case of `CC(C)Nc1nc2nonc2nc1Nc1ccccc1`, the activity change, negative = inhibition is reported as inconclusive: 3.08%. For `Cc1ccccc1C(=O)c1cccn1CC(=O)NCCCN1CCc2ccccc2C1`, the activity change, negative = inhibition was inconclusive: -20.9%. With `Fc1ccc2c(c1)C(c1ccncc1)=NNC(c1ccc(Br)cc1)=N2` the activity change, negative = inhibition was inconclusive: -8.86%. For `Cc1cccc(NC(=S)NC2CCCC2)c1`, the activity change, negative = inhibition was inconclusive: -20.7%. For `O=C(NC1CCCCC1)N1CCN(c2ncccn2)CC1`, the Potency was inconclusive: 18.4 µM [falling, partial curve]. With `CN(Cc1ccsc1)C(=O)CCc1nnc(CCCc2ccccc2)o1` the activity change, negative = inhibition was inconclusive: 10.4%. With `Cn1c(=O)c2c(SC3CCCC3)nc(C3CC3)nc2n(C)c1=O` the activity change, negative = inhibition was “inactive”. For `Cc1noc(C)c1CSc1ccc2ccccc2n1`, the Potency was inconclusive: 10.3 µM [falling, partial curve]. In the case of `COc1ccc(OC)c(C2C(C#N)=C(N)Oc3c2c(C)nn3-c2cccc(Cl)c2)c1` (stereo not drawn), the Potency is reported as inconclusive: 6.31 µM [activator, partial curve, poor fit]. In the case of `CC(C)(c1ccccc1)c1ccc(OCc2ccc(C(=O)O)o2)cc1`, the activity change, negative = inhibition is reported as “inactive”. For `Cc1cc(C(=O)COc2ccccc2[N+](=O)[O-])c(C)n1-c1cccc(S(=O)(=O)N2CCOCC2)c1`, the activity change, negative = inhibition was inconclusive: -10.1%. For `COc1ccc(NC(=O)c2cc(N3C(=O)C4C5CCC(C5)C4C3=O)ccc2Cl)c(OC)c1` (stereo not drawn), the Potency was inconclusive: 35.5 µM [falling, partial curve, poor fit]. With `COc1ccc(C2CC(C(F)(F)F)n3ncc(C(=O)NCC4CCCO4)c3N2)cc1OC` (stereo not drawn) the activity change, negative = inhibition was inconclusive: -22.4%. In the case of `COc1ccc(CCNC(=O)CSc2nnc(CNC(=O)c3ccccc3F)o2)cc1OC`, the Potency is reported as inconclusive: 25.9 µM [falling, single point]. With `Cc1ccc(-c2nnc(SCC(=O)NCc3ccccc3)nc2-c2ccc(C)cc2)cc1` the Potency was inconclusive: 35.5 µM [falling, single point]. With `COc1ccc2oc(C(=O)NCc3ccccc3CN3CCCC3)c(C)c2c1` the activity change, negative = inhibition was “inactive”. In the case of `O=C(Nc1ccc2c(c1)CCC2)c1cccc(S(=O)(=O)Nc2ccccc2Cl)c1`, the activity change, negative = inhibition is reported as inconclusive: -10.6%. In the case of `CC(=O)Nc1ccc(NC(=O)c2ccccc2N(Cc2ccccc2)S(C)(=O)=O)cc1`, the activity change, negative = inhibition is reported as “inactive”. With `CC(C)(C)c1ccc(CSc2nnc(-c3ccccn3)n2Cc2ccco2)cc1` the Potency was inconclusive: 29.1 µM [falling, single point]. In the case of `CCc1ccc(C(=O)NC(Cc2c[nH]c3ccccc23)C(=O)OCC(=O)c2ccc(Br)cc2)cc1` (stereo not drawn), the Potency is reported as inconclusive: 10 µM [rising, partial curve]. In the case of `O=C(NCc1ccccc1)c1ccc2c(=O)n(CCCN3CCCC3=O)c(=S)[nH]c2c1`, the activity change, negative = inhibition is reported as inconclusive: 10.6%. With `CCOC(=O)c1cnc2ccccc2c1Nc1cccc(OC)c1` the activity change, negative = inhibition was inconclusive: 16.4%. With `Cc1sc(NC(=O)CS(=O)(=O)c2ccccc2)c(C(N)=O)c1C` the activity change, negative = inhibition was inconclusive: -26.8%. With `CS(=O)(=O)N(CC(=O)NCCSc1ccc(Cl)cc1)c1ccc2c(c1)OCO2` the activity change, negative = inhibition was inconclusive: 1.85%. For `COc1cc(NC(=O)c2cccc(C)c2)c(OC)cc1NC(=O)CN1CCCCC1`, the activity change, negative = inhibition was “inactive”. With `COc1ccc(CNC(=S)NCc2ccc(F)cc2)cc1` the Potency was inconclusive: 35.5 µM [falling, partial curve, poor fit]. In the case of `Cc1onc(-c2ccccc2Cl)c1C(=O)Nc1nc2c(s1)CCCC2`, the activity change, negative = inhibition is reported as inconclusive: 3.93%. For `COc1ccc(NC(=O)C(=O)Nc2cccc3cccnc23)cc1OC`, the Potency was inconclusive: 0.1 µM [falling, full curve, poor fit]. In the case of `O=C(/C=C/c1ccccc1Cl)NC1CCS(=O)(=O)C1` (stereo not drawn), the activity change, negative = inhibition is reported as “inactive”. With `CCN(CC)c1ccc(/C=C2/SC(=O)N(C(C)C)C2=O)o1` the Potency was inconclusive: 5.8 µM [falling, partial curve, poor fit].
